This is an account of results in EP4703377A1.

Protein sequences, listed by entry. Tags and fused reporters are not part of them. Residues count along the entry.
UniProt P03452, residues 18-519: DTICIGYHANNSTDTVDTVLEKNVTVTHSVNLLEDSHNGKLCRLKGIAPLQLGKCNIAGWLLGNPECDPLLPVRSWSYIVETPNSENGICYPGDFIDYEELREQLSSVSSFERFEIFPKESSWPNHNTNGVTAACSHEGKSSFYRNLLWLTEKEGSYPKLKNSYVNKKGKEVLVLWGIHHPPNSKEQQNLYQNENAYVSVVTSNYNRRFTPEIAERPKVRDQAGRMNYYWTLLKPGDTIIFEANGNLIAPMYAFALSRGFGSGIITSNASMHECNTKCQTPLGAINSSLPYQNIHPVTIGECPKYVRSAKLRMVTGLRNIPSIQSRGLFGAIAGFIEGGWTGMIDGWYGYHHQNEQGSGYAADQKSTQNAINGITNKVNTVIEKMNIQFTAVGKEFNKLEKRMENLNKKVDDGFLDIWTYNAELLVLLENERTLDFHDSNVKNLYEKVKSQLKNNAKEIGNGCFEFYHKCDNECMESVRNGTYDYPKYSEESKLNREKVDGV

These are yes or no findings as the source states them, for the method shown. Some entries that bind do so weakly or less than the wild type.

The target in assay [1] is Recombinant HA antigen A/Puerto Rico/8/1934 (H1N1) (influenza A virus A/Puerto Rico/8/1934 (H1N1)) (UniProt P03452). In words: ELISA on plate-coated recombinant HA (AUC, Figure 1).
Assay [2] deals with Recombinant HA antigen A/X-31 (H3N2) (influenza A virus A/X-31 (H3N2)) (UniProt P03437). Described as above.

B1: Clone 6 (antibody, V domains shown)
VH: QVQLEQSGAEVKKPGSSVKVSCKASGPMFSRSAFSWVRQAPGQGLEWMGRIIPTVDLKNYAQKFQGRVTFTADKSTATSYMELRSLKSEDTAVYYCARMGSGSSYYGMDVWGLGTTVTVSS
VL: DIVMTQSPLSLPVIPGEPASISCRSSQSLLQSNGNNYLDWYLQKPGQSPQLLIYLGSNRASGVPDRFSGSGSGTDFTLTISRVEAEDVGVYYCLQARQSSVLTFGGGTKLEIK
Consider B1, for which the binding entry in assay [1] and in assay [2] was “binds” throughout.

B2: Clone 7 (antibody, V domains shown)
VH: QVQLQESGPGLVKPSETLSLTCSVSGGPLTSSTYFWGWIRQPPGKGLEWLGSINFRGTTDNAPSLKSRVTLSIDTSTHQFSLRLSSVTAKDTAVYYCARHTQRLTVFTVVHGFDLWGQGTVVSVSS
VL: QSALTQPASVSGSPGQSITISCTGATGDIGVSDFVSWYQQHPGKAPKLIIFDVTNRPSGVSNRFSGSKSVNTASLTISGLQAEDEADYYCCLYSTRSRDWEFGGGTKLTVL
B2: in assay [1], the binding entry is listed as “binds”.
